In patent US20230030032A1 (AGGAMIN, published 2023):
Results are given in words; binding and its absence hold for the method and conditions named. Some results given as binding are weak or reduced against the parent protein; the word gives no strength.

How the values were obtained:
[1] = target: T1, soluble Endoglin (sEng), recombinant, as spiked or purified protein (human) (UniProt P17813); experiment: preformed equimolar Bmp9-sEng complex captured through sEng on coated cENG10 and detected with anti-Bmp9 antibody
T1 sequence (looked up): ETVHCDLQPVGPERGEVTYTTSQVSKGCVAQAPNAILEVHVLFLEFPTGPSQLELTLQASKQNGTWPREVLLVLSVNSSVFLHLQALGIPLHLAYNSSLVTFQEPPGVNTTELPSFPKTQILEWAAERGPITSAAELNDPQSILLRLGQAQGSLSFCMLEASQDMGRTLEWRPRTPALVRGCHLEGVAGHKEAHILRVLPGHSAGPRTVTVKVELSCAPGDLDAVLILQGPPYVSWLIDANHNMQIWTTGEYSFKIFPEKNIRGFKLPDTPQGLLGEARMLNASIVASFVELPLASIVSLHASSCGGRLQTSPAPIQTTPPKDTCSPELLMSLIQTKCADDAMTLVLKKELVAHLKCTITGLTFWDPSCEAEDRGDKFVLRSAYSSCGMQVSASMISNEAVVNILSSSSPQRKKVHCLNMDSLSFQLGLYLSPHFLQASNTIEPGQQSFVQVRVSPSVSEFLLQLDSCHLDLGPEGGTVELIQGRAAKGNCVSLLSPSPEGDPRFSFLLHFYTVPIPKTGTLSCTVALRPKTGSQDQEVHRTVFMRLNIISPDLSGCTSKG

[2] = target: T1, soluble Endoglin (sEng), recombinant, as spiked or purified protein (human); experiment: sandwich ELISA: cENG10 coated at 4 ug/mL, preformed equimolar Bmp9/sEng complex against Bmp9 alone, bound Bmp9 detected with biotinylated anti-Bmp9 antibody and an HRP conjugate

B1: purified human Bmp9 (ligand, UniProt Q9UK05 320-429, looked up)
chain: SAGAGSHCQKTSLRVNFEDIGWDSWIIAPKEYEAYECKGGCFFPLADDVTPTKHAIVQTLVHLKFPTKVGKACCVPTKLSPISVLYKDDMGVPTLKYHYEGMSVAECGCR
**Q.** How did the binding [1] turn out when B1 was run?
**A.** binds

**Q.** What about the binding [2] of the same binder?
**A.** binds
